# Primary screen of a compound library

The chains behind the UniProt entries cited, without tags or fusion partners. Residues count along the entry.
UniProt A4I591, 1-473: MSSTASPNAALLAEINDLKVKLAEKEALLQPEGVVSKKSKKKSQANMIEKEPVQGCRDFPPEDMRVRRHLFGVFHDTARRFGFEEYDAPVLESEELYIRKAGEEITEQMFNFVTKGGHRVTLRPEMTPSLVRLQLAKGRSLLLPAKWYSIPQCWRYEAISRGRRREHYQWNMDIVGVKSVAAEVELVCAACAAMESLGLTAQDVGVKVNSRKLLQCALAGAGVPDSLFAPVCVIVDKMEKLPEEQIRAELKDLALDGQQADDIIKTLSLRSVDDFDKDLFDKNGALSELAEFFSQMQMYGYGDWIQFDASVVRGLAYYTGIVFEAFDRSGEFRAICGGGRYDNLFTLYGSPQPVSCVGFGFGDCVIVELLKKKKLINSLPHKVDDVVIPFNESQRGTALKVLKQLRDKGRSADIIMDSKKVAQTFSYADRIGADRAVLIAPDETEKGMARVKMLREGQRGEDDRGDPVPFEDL

Source: ChEMBL document CHEMBL3988442, “University of Dundee, Small-Polar-MMV Screening Library” (2021).

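Enzyme assay of histidyl-tRNA synthetase; the read-out is not stated. Target: Histidine-tRNA ligase, Leishmania infantum (UniProt A4I591). Concentration: 30 µM. The record gives no direction; compounds that gave an IC50 in retests scored well above the rest, so higher reads as stronger inhibition. The assay is labelled LdHisRS but filed under L. infantum. About 69,000 compounds were tested under these conditions; 0.6% (about 410) showed 50% or more at least once.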

Values are the deposited “Percent Effect”, in %.
The controls that fix the scale are not given in the record; negative values are as filed.
This is an unselected part of the compounds tested.

* CS(=O)(=O)Cc1ccccc1NCc1cc(Cl)ccc1Cl | 17.74%
* CN(Cc1ccco1)C(=O)NC1CCCN(c2ncccn2)C1 (configuration not stated) | 5.357%
* O=C(CC1CCCC1)N1C[C@@H]2CCN(c3cccnc3)C[C@@H]2C1 | 12.2%
* Cc1cccc(C(=O)N(C)C2CCN(c3ccccn3)CC2)c1C | 7.965%
* O=C(C1=NN(Cc2ccccc2)c2ccccc2S1(=O)=O)N1CCCC1 | 53.91%
* c1ncn(CC2CN(Cc3nc(C4CC4)no3)CCO2)n1 (configuration not stated) | 10.91%
* c1csc(-c2nc(CN3CCOC(Cn4cccn4)C3)co2)c1 (configuration not stated) | 28.57%
* Cc1nc(C(C)C)sc1C(=O)N(C)CCCc1cnn(C)c1 | 2.74%
* Clc1snnc1CN(Cc1cccs1)C1CC1 | 11.67%
* Cc1ccc(-c2n[nH]cc2CNCC2CCc3nnc(C)n3C2)cc1 (configuration not stated) | 20.69%
* CN1CC2(CCN(Cc3cc(Cl)ccc3OCC(=O)O)CC2)OC1=O | -1.408%
* O=C(c1ccccn1)N1CCCN(Cc2nnc(C3CC3)o2)CC1 | 6.612%
* CC1c2ncc(COCC3CCOCC3)n2CCN1S(C)(=O)=O (configuration not stated) | 14.53%
* Cc1nc(CNC2CCCN(c3cccnn3)C2)no1 (configuration not stated) | 11.83%
* CS(=O)(=O)NCc1cnc2n1CCN(Cc1ccco1)CC2 | 9.677%
* COC(C)(C)CC(C)NC(=O)Nc1ccccn1 (configuration not stated) | 4.712%
* CS(=O)(=O)NCc1cc(-c2cc(F)cc(F)c2)nc(N2CCCC2)n1 | 14.29%
* COCc1cc(CNC(=O)c2c(C)cc(C)[nH]c2=O)n[nH]1 | 13.22%
* CCCS(=O)(=O)N1CCC2(CCC(=O)N(CCc3ccncc3)C2)CC1 | 18%
* COC[C@@]12CCO[C@@H]1CCN(C(=O)C1CCOCC1)C2 | 20%
* CC1CN(c2ncnc3cccc(F)c23)CCO1 (configuration not stated) | 19.48%
* CC(C)N(C(=O)c1ccnc(OCC(F)(F)F)c1)c1cccnc1 | 5.882%
* CCCC(=O)N1CCC([C@@H]2C[C@H](C(F)(F)F)n3nc(C)cc3N2)CC1 | 28.42%
* COc1cc(CCC(=O)N2CCC(c3cnccn3)CC2)on1 | 11.27%
* c1ccc(C[C@H]2CN(Cc3nccs3)CC[C@@H]2OCC2CC2)cc1 | 23.53%
* CC(=O)N1CCCN(C(=O)NCc2cc[nH]n2)CC1 | 34.85%
* CSc1ncnc(NCc2ccco2)c1C#N | 12.9%
* Cc1ccc(CN(C(=O)NCC2CCS(=O)(=O)C2)C2CC2)o1 (configuration not stated) | 20%
* CC1COCCN1C(=O)NCCn1ccnc1 (configuration not stated) | 17.95%
* COc1cc(F)ccc1N(C)Cc1ccncc1 | 15.49%
* CC(Cc1ccco1)NS(=O)(=O)N1CCCCC1 (configuration not stated) | 6.579%
* COCC1CN(C(=O)CS(C)(=O)=O)Cc2ncn(CC3CC3)c21 (configuration not stated) | 9.722%
* Cn1ccc(C(=O)NCc2cccc(N3CCCCC3=O)c2)cc1=O | 18.75%
* COCC(=O)Nc1ccnc(OCCN(C)C)c1 | 19.74%
* COc1c(CNC2CCc3cc(Cl)ccc32)c(C)nn1C (configuration not stated) | 8.547%
* CCc1n[nH]c(C2CN(C(=O)c3cnn(CC)c3)CCO2)n1 (configuration not stated) | 11.5%
* Cc1nc(-c2cc(Cl)c3c(c2)CC(CN)O3)c[nH]1 (configuration not stated) | 40.48%
* Cc1nnc(NCC2(c3ccccc3)CCOCC2)c(C#N)c1C | 28.77%
* COc1ccc(C)cc1C1(CNc2cn[nH]c(=O)c2Cl)CCOCC1 | 30.14%
* CNc1ncccc1CN1CCC1c1cc(N)nc(C)n1 (configuration not stated) | 0%
* CC(CN1CCOCC1)NC1CCN(Cc2cccc(O)c2)CC1 (configuration not stated) | 9.375%
* COc1cccc(C2CC(=O)Nc3nc(N4CCCCC4)sc32)c1OC (configuration not stated) | 120%
* COc1ccc(Cl)cc1CCNC(=O)N(C)CC1CCOC1 (configuration not stated) | 3.665%
* COCc1cn(CC2CCN(Cc3cc(C)[nH]n3)CC2)nn1 | 15.38%
* CCCn1ncc(C(=O)N2CCN([C@H]3CCCC[C@@H]3O)CC2)c1C | 0%
* COCCN1CCn2cc(CNC(=O)C3CCC3)nc2C1 | 11.43%
* O=C(NC1CCN(C2CC2)CC1)c1[nH]nc(C2CC2)c1Cl | 28.57%
* CN(Cc1ccon1)CC1CCOc2ccccc2C1 (configuration not stated) | 7.937%
* NC(=O)NC(CC(=O)N1CCc2sccc2C1)c1cccc(Br)c1 (configuration not stated) | 18.07%
* c1csc(-c2nc(CN3CCCC3Cn3cccn3)co2)c1 (configuration not stated) | 24.69%
* O=C(c1ccc2c(c1)COC2)N1CCC(Nc2ccccc2)CC1 | 19.18%
* C[C@@H](O)CNC(=O)c1nc(CC(=O)Nc2ccccc2)no1 | 5.618%
* Cc1noc(C)c1CC(=O)NCC(C(C)C)N1CCOCC1 (configuration not stated) | 21.28%
* Cc1nc(NC2CCOCC2)cc(C2CCN2S(C)(=O)=O)n1 (configuration not stated) | 10.07%
* Cc1ccc(S(=O)(=O)NC2CCC(=O)NC2)cc1Br (configuration not stated) | 6.061%

6 of the entries, repeated:

* CCc1n[nH]c(C2CN(C(=O)c3cnn(CC)c3)CCO2)n1 (configuration not stated) | 11.5%
* NC(=O)NC(CC(=O)N1CCc2sccc2C1)c1cccc(Br)c1 (configuration not stated) | 18.07%
* COC(C)(C)CC(C)NC(=O)Nc1ccccn1 (configuration not stated) | 4.712%
* CS(=O)(=O)NCc1cnc2n1CCN(Cc1ccco1)CC2 | 9.677%
* C[C@@H](O)CNC(=O)c1nc(CC(=O)Nc2ccccc2)no1 | 5.618%
* Cc1ccc(S(=O)(=O)NC2CCC(=O)NC2)cc1Br (configuration not stated) | 6.061%